{"sequences": {"note": "Sequences of proteins named here, by UniProt entry; tags and fusion partners are left off. Residues count along the entry.", "UniProt Q9BXM7, residues 78-581": "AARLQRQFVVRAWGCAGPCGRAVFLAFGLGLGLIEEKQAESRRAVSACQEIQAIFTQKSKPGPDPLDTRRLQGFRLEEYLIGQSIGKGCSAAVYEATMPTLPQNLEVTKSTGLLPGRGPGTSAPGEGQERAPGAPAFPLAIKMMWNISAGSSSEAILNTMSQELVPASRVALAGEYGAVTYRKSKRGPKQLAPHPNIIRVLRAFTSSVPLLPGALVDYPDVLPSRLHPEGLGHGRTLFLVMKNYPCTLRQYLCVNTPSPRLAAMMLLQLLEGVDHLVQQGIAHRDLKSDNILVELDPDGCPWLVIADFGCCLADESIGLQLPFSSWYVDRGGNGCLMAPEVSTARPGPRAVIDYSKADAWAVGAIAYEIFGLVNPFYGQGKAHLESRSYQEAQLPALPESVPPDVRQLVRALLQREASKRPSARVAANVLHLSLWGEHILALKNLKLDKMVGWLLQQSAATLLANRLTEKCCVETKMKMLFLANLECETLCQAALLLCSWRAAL", "UniProt Q969V5": "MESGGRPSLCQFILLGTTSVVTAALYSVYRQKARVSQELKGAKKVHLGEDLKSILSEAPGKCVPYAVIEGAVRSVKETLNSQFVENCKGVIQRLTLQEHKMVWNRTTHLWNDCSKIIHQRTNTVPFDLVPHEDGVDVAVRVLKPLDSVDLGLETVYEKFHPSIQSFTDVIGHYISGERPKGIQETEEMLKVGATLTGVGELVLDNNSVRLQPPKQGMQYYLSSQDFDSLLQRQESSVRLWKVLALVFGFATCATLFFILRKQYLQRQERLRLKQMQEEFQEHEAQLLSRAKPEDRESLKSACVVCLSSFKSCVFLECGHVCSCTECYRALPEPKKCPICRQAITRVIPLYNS"}, "source": "paper doi:10.1101/2025.05.27.656300", "biological_target": "PINK1-GFP (PTEN-induced kinase 1 with a C-terminal GFP tag) (human) (UniProt Q9BXM7)", "assay": "co-IP", "note": "No constants are given. Whether binding was seen depends on the method and setting. Binding seen in cells or lysates may run through a third protein. Some results given as binding are weak or reduced against the parent protein; the word gives no strength.", "data": [{"substance": "mitochondrial-anchored protein ligase (MAPL/MUL1) (from UniProt Q969V5 1-352)", "values": [{"measurement": "binding", "result": "binds"}]}]}
